Assay results from patent US6844486.
These are yes or no findings as the source states them, for the method shown. Some entries that bind do so weakly or less than the wild type.

Molecular target: Bacterially expressed, purified protein of the first 199 amino acids of NAC1 (Arabidopsis thaliana) (UniProt Q84TE6)
Test: native gel against denaturing gel (the filing calls it gel filtration), homodimer

B1: Bacterially expressed, purified protein of the first 199 amino acids of NAC1 (protein)
chain: METEEEMKESSISMVEAKLPPGFRFHPKDDELVCDYLMRRSLHNNHRPPLVLIQVDLNKCEPWDIPKMACVGGKDWYFYSQRDRKYATGLRTNRATATGYWKATGKDRTILRKGKLVGMRKTLVFYQGRAPRGRKTDWVMHEFRLQGSHHPPNHSLSSPKEDWVLCRVFHKNTEGVICRDNMGSCFDETASASLPPLMD
binding: binds
